No constants are given. Whether binding was seen depends on the method and setting. A result given as binding can be weak or reduced; the word gives no strength.
Columns and labels:
PCSK9Δhelix (human) [1] = assay: TR-FRET competition, Ab20 as competitor
PCSK9Δhelix (human) [2] = assay: SPR
PCSK9Δhelix (human) [3] = assay: phage spot ELISA
PCSK9Δhelix (human) [4] = assay: phage competition ELISA
PCSK9Δhelix (human) [5] = assay: Ab20 TR-FRET competition and SPR

binding (PCSK9Δhelix (human) [1])	binding (PCSK9Δhelix (human) [2])	Binder	other results
binds		TVFTSWEEYLDWVGSGKLWNL (Ac-; -NH2) [Compound 6]	
	binds	TVFTSWEEYLDWVGSGCWNLKRIGSQGC (Ac-; -NH2; disulfide C17-C28) [Compound 2]	
binds		GSGCWNLKRIGSQGC (Fmoc- at N-terminus; -NH2; disulfide) [Compound 98]	
	binds	SGSGCFIPWNLQRIGLLC (FAM (5-carboxyfluorescein) at N-terminus; -NH2; disulfide) [Compound 33]	
binds		TVFTSWEEYLDWVGSGKLWNLG (Ac-; -NH2) [Compound 5]	
	binds	ALMPWNLVRIGLLR (Ac-; -NH2) [Compound 45]	
binds		CRLPWNLKRIGLPC (Ac-; -NH2; disulfide) [Compound 67]	
binds	binds	CRLPWNLQRIGLPC (Ac-; -NH2; disulfide) [Compound 32]	
binds		TVFTSWEEYLDWVGSGKLWNLGR (Ac-; -NH2) [Compound 4]	
binds		DLMPWNLVRIGLLR (Ac-; -NH2) [Compound 35]	
		TAFTSWEEYLDWVGSGSYRGAWSVFGGSTD [SEQ ID NO 336]	binding (PCSK9Δhelix (human) [3]): binds
		TAFTSWEEYLDWVGSGCVKVGLSWIGDCNS [SEQ ID NO 334]	binding (PCSK9Δhelix (human) [3]): binds
	binds	CFIPWNLQRIGLLC (Ac-; -NH2; disulfide) [Compound 31]	
binds		MCLWNLKRIGSQCEY (Ac-; -NH2; disulfide) [Compound 63]	
binds		TVFTSWEEYLDWVGGSGCWNLKRIGSQGC (Ac-; -NH2; disulfide) [Compound 13]	
		TAFTSWEEYLDWVGSGQCYPWCRL [SEQ ID NO 338]	binding (PCSK9Δhelix (human) [3]): binds
binds	binds	TVFTSWEEYLDWVGSGDLMPWNLVRIGLLR (Ac-; -NH2) [Compound 20]	binding (PCSK9Δhelix (human) [4]): binds
	binds	FCLWNLKRIGAQCWF (Ac-; -NH2; disulfide) [Compound 96]	
binds		TVFTSWEEYLDWVGSGKLWNLGRV (Ac-; -NH2) [Compound 1]	

binding (PCSK9Δhelix (human) [1])	binding (PCSK9Δhelix (human) [2])	Binder	other results
	binds	LMPWNLVRIGLLR (Ac-; -NH2) [Compound 50]	binding (PCSK9Δhelix (human) [5]): binds
	binds	CRLPWNLARIGLPC (Ac-; -NH2; disulfide) [Compound 73]	
	binds	MPWNLVRIGLLR (Ac-; -NH2) [Compound 51]	binding (PCSK9Δhelix (human) [5]): binds
		SGCRLPWNLQRIGLPC [K9gvpep4]	binding (PCSK9Δhelix (human) [4]): binds
		SGDLMPWNLVRIGLLR [K9gvpep7]	binding (PCSK9Δhelix (human) [4]): binds
	binds	SGDLMPWNLVRIGLLR [Compound 28]	
binds		TVFTSWEEYLDWVGSGKLWN (Ac-; -NH2) [Compound 7]	
	binds	SGCFIPWNLQRIGLLC (free N-terminus; -NH2; disulfide) [Compound 26]	
	binds	SGSGCRLPWNLQRIGLPC (FAM (5-carboxyfluorescein) at N-terminus; -NH2; disulfide) [Compound 34]	
	binds	PWNLVRIGLLR (Ac-; -NH2) [Compound 52]	binding (PCSK9Δhelix (human) [5]): binds
binds		TVFTSWEEYLDWVGSGGCWNLKRIGSQGC (Ac-; -NH2; disulfide) [Compound 14]	
binds		TVFTSWEEYLDWVGSGGCRLPWNLQRIGLPC (Ac-; -NH2; disulfide) [Compound 25]	
binds		TVFTSWEEYLDWVGSGGCFLPWNLQRIGLLC (Ac-; -NH2; disulfide) [Compound 38]	
		TAFTSWEEYLDWVGSGGVLGVGGMWIA [SEQ ID NO 335]	binding (PCSK9Δhelix (human) [3]): binds
		TAFTSWEEYLDWVGSGPHSYWLDRVQ [SEQ ID NO 332]	binding (PCSK9Δhelix (human) [3]): binds
		TAFTSWEEYLDWVGSGDCNLWGDDGKYRLCF [SEQ ID NO 333]	binding (PCSK9Δhelix (human) [3]): binds
	binds	SPCRVGYTPC (Ac-; -NH2) [Compound 23]	
binds	binds	TVFTSWEEYLDWVGSGCRLPWNLQRIGLPC (Ac-; -NH2; disulfide) [Compound 19]	binding (PCSK9Δhelix (human) [4]): binds
	binds	DLMPWNLVRIGLAR (Ac-; -NH2) [Compound 55]	
